Source: article PMC9083542, “Small Molecule Inhibitor Targeting CDT1/Geminin Protein Complex Promotes DNA Damage and Cell Death in Cancer Cells” (Frontiers in Pharmacology, 2022)
Positions count from the first letter of the chain named. Results are given in words; binding and its absence hold for the method and conditions named. Some entries that bind do so weakly or less than the wild type. Sequences can lack the tags named with a protein.

Experiments:
[1] = target: T1, His-tagged human CDT1^158-396 (miniCDT1), wild type (human) (UniProt Q9H211); experiment: AlphaScreen or HTRF; dose response of compound AF615 (serial dilution from 200 μM) on the Flag-ΔDBGeminin/His6-miniCDT1 wild type complex; nickel-chelated Acceptor beads and a-Flag Donor beads; both purified
T1 sequence: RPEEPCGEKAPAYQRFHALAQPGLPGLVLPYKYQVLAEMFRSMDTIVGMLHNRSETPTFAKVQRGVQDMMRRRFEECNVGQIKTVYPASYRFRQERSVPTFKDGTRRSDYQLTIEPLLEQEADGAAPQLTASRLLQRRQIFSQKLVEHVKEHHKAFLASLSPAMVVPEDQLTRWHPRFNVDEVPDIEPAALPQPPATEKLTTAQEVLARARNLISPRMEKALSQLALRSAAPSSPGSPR

[2] = target: T2, His-tagged human CDT1^158-396 Y170A (miniCDT1Y170A) (human) (UniProt Q9H211); experiment: AlphaScreen or HTRF; competition: Flag-ΔDBGeminin/His6-miniCDT1 mutant complex at 50 nM, streptavidin Donor beads with biotinylated anti-Flag antibody, nickel-chelate Acceptor beads; increasing untagged ΔDBGeminin; 25 mM Hepes pH 7.4, 100 mM NaCl, 0.1% BSA; 1.5 h at RT; both purified
T2 sequence: T1 sequence with Y13A

[3] = target: T3, His-tagged human CDT1^158-396 F173A (miniCDT1F173A) (human) (UniProt Q9H211); experiment: as above
T3 sequence: T1 sequence with F16A

[4] = target: T4, His-tagged human CDT1^158-396 L176A (miniCDT1L176A) (human) (UniProt Q9H211); experiment: as above
T4 sequence: T1 sequence with L19A

[5] = target: T2, His-tagged human CDT1^158-396 Y170A (miniCDT1Y170A) (human); experiment: co-expression and co-purification (IMAC, SEC); His-tagged miniCDT1 mutants co-expressed with ΔDBGeminin in E. coli Rosetta 2 (DE3); Ni-NTA column, then Superdex 200; 25 mM Tris-HCl pH 7.5, 200 mM NaCl
[6] = target: T3, His-tagged human CDT1^158-396 F173A (miniCDT1F173A) (human); experiment: as above
[7] = target: T4, His-tagged human CDT1^158-396 L176A (miniCDT1L176A) (human); experiment: as above

binding [1]: binds
binding [2]: binds
binding [3]: binds
binding [4]: binds
binding [5]: binds
binding [6]: binds
binding [7]: binds
B1: Flag-tagged Geminin^28-209 (ΔDBGeminin) (domain or fragment, human, UniProt O75496 28-209, looked up)
chain: MIQPSASGSLVGRENELSAGLSKRKHRNDHLTSTTSSPGVIVPESSENKNLGGVTQESFDLMIKENPSSQYWKEVAEKRRKALYEALKENEKLHKEIEQKDNEIARLKKENKELAEVAEHVQYMAELIERLNGEPLDNFESLDNQEFDSEEETVEDSLVEDSEIGTCAEGTVSSSTDAKPCI
notes: Geminin, human, residues 28-209 (lacks the N-terminal stretch with the destruction box), cloned into pET22b; also called Flag-tagged ΔDBGeminin; source: E. coli Rosetta 2 (DE3), co-expressed with miniCDT1 variants, co-purified (Ni-NTA IMAC, SEC)
